Patent US20250000818A1, “NEW SYNERGISTIC COMBINATIONS BASED ON FENM AND AN ACETYLCHOLINESTERASE INHIBITOR” (REST Therapeutics, priority 2021, published 2025)
Where a name gives a salt, the structure may show the parent alone.

Experiments:
[1] = test system: mice intoxicated with Aβ25-35 oligomers; experiment: Y-labyrinth spontaneous alternation test (YMT), short-term spatial working memory, Aβ25-35 oligomer ICV intoxication model; type: in vivo, male Swiss OF-1 mice
[2] = test system: mice intoxicated with Aβ25-35 oligomers; experiment: Passive avoidance test (PAT), long-term contextual memory, Aβ25-35 oligomer ICV intoxication model; type: in vivo, male Swiss OF-1 mice

COc1cc2c(cc1OC)C(=O)C(CC1CCN(Cc3ccccc3)CC1)C2 (stereo not shown) [DPZ, donepezil hydrochloride]
effect on percentage of alternation of intoxicated mice ([1]; 0.01 mg/kg): no improvement was observed | effect on percentage of alternation of intoxicated mice ([1]; 0.03 mg/kg): does not confer a statistically significant improvement | PP (%) percentage protection ([1]; 0.03 mg/kg IP): 10.6 ± 34.0% | effect on percentage of alternation of intoxicated mice ([1]; 0.1 mg/kg): confers an improvement in mnesic symptoms | PP (%) percentage protection ([1]; 0.1 mg/kg IP): 46.9 ± 26.4% | PP (%) percentage protection ([1]; 0.3 mg/kg IP): 58.9 ± 33.7^• % | PP (%) percentage protection ([2]; 0.03 mg/kg IP): 19.7 ± 17.2% | PP (%) percentage protection ([2]; 0.1 mg/kg IP): 19.6 ± 21.6% | PP (%) percentage protection ([2]; 0.3 mg/kg IP): 42.2 ± 21.4% | effect on passive avoidance performance (latency) of intoxicated mice ([2]; 1 mg/kg, highest dose tested): effective in counteracting the amnesic effects
